Source: patent US6540996B1, “Compound screening methods” (priority 1999, dated 2003)
At least one structure is not confirmed: it was looked up by name or label, or the drawing left a doubt.

How the values were obtained:
[1] = test system: C. elegans; assay: plate (drop) assay: nematodes fed E. coli lawn pre-loaded with the compound; type: in vivo; settings: 500 μM
Method: (§1) Using two kinds of assays, the optimal concentration of compounds that inhibit the activity SERCA has been determined. The first assay is designated the drop or plate assay in which the nematodes are fed E. coli strains pre-loaded with the compound. In a second assay, the compound is administrated to the worm in liquid culture.
A standard plate drop assay is performed according to the following protocol. 4 ml NGM agar (see “The nematode C. elegans” Ed. by William B. Wood and the Community of C. elegans Researchers, CSHL Press, 1988, pg589) is into 3 cm plates and seeded with approximately 5 μl of an E. coli overnight culture and grown preferably for one week at room temperature. Approximately 10 μl of test compound dissolved in DMSO or other suitable solvent is pipetted onto the bacterial lawn so that the lawn is covered completely. After overnight soaking in or compound, one C. elegans (L4 stage) per plate is put onto the bacterial lawn. Plates are incubated at 21° C. and checked after some hours.

[2] = test system: C. elegans; assay: liquid assay: compound administered to the worm in liquid culture; type: in vivo
Description: as §1

CC(=O)C1=C(O)[C@@H]2[C@H]3c4c[nH]c5cccc(c45)C[C@H]3C(C)(C)N2C1=O [Cyclopiazonic acid]
growth of the F1 generation [1]: delayed growth of the F1 generation
phenotype after 24 hours ([1]; after 24 hours): starved, pale and thin, with only a few eggs in the body, a defective gonad, and reduced brood size
movement after one hour ([1]; after one hour): lay still or move slowly
phenotype of worms and progeny ([2]; 1 mM): pale, thin worms with a slow movement and a very strongly reduced brood size
growth ([2]; lower concentration 0.5 mM): growth delay
